Results are given in words; binding and its absence hold for the method and conditions named. Binding seen in cells or lysates may run through a third protein. Some entries that bind do so weakly or less than the wild type. Tags and fused reporters may be left off the sequences shown. Values belong to the binder of their own block, whether it stands above or below them.
What was measured:
Flag-SCAP = biological target: T1, Flag-SCAP (UniProt Q12770); test: co-IP; anti-Flag immunoprecipitation from lysates of transfected cells (Flag-SCAP with Myc-GP73 or Myc-vector) in NP40 buffer (1% NP40, 150 mM NaCl, 40 mM Tris pH 7.5), protein G-agarose; immunoblot
T1 sequence: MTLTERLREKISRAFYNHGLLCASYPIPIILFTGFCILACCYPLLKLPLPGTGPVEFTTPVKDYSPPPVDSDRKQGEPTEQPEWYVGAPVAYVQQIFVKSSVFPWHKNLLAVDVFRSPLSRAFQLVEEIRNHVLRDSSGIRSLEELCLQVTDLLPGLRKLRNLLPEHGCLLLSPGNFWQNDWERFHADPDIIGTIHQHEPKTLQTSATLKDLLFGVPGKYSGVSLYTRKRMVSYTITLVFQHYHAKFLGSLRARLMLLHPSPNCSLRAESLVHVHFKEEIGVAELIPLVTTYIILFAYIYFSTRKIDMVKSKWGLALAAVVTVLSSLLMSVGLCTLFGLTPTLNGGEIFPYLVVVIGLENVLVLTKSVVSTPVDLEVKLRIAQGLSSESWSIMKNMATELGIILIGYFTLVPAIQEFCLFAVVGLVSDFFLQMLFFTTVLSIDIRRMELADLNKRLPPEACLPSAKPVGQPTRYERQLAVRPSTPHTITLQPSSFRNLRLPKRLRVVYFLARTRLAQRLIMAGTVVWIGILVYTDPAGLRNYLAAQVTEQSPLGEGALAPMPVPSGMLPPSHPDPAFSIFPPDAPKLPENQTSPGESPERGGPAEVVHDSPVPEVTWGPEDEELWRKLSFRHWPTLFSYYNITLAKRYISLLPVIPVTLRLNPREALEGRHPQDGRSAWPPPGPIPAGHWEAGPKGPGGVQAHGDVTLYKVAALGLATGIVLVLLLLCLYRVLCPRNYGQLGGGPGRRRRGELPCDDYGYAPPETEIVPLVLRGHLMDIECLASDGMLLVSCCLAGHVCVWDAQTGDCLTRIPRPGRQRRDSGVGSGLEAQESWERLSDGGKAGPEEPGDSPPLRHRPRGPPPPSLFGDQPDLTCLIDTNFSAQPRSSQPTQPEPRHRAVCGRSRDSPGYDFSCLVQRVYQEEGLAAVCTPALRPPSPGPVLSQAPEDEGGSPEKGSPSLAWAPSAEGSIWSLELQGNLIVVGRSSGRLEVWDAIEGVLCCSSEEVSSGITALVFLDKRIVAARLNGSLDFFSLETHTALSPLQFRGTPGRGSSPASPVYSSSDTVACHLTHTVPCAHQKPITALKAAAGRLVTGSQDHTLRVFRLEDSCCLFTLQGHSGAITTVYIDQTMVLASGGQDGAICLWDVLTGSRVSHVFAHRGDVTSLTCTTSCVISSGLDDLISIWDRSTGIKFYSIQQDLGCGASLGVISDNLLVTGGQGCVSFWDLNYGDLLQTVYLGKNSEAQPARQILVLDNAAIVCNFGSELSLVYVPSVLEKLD

GST-GP73 fusion protein = biological target: T2, GST-GP73 fusion protein (UniProt Q8NBJ4); test: pull-down; 5 ug purified GST or GST-GP73 bound to glutathione beads, incubated with 293T cell lysate for 2 hrs at 4 °C; washed with lysis buffer; immunoblot with SCAP or SREBP1 antibody; only the target purified
T2 sequence: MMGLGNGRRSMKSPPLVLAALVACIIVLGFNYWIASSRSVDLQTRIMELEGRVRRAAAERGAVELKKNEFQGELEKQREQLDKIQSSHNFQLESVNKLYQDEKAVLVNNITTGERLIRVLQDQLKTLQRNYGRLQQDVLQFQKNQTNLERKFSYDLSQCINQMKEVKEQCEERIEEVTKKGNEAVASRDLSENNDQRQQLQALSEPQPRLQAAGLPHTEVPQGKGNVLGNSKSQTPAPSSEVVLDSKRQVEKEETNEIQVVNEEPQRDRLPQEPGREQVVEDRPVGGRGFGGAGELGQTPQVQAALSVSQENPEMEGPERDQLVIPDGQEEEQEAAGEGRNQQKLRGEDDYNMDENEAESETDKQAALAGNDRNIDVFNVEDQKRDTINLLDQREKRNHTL

binding (Flag-SCAP): binds
B1: Myc-GP73 (protein, UniProt Q8NBJ4 1-401)
chain: T2 sequence

binding (GST-GP73 fusion protein): binds
B2: SREBP cleavage-activating protein (SCAP), endogenous (protein, UniProt Q12770 1-1279)
chain: T1 sequence
